In this experiment the target is Hrk-TM, transmembrane domain of human Harakiri (residues 61-91) (human) (UniProt O00198). Briefly: migration in SDS-PAGE; Hrk-TM at 0.16-0.5 mM in SDS-polyacrylamide gel, migration compared with lysozyme (~14 kDa) and gpW (~7 kDa); both purified.

Our source for the binding values is article PMC3121775.

These are yes or no findings as the source states them, for the method shown.

As for “Hrk-TM, transmembrane domain of human Harakiri (residues 61-91) (from UniProt O00198 61-91) (peptide)”, the binding result is “no binding (tested: 0.5 mM)”.
